{"source": "PubChem BioAssay AID662", "about": "(National Center for Advancing Translational Sciences (NCATS), 2007)", "note": "This is one part of the list. Further columns of the screen follow, without active or inactive calls. Most of these compounds were active or inconclusive in the main read-out, so they are no random draw. Potencies come from curve fits of mixed quality, noted in brackets.", "data": [{"test": "Cell signaling CRE-BLA (Fsk stim)", "settings": "CHO CRE-bla reporter (cAMP response element driving beta-lactamase), forskolin EC10, beta-lactamase ratio; measured here: 460 nm blue channel", "in_short": "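Reporter-gene assay: CHO cells with beta-lactamase behind cAMP responsive elements, co-treated with compound and EC10 NKH 477 for 3 hours at 37 degrees Celsius. Activity came from the 460/530 nm CCF4 emission ratio.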", "values": [{"molecule": "CCCn1c(NCc2ccc(C)o2)nc2ccccc21", "AC50": "5.01 µM [falling, single point]"}, {"molecule": "O=S(=O)(CCN1CCN(C(c2ccccc2)c2ccccc2)CC1)C(F)(F)F", "AC50": "3.16 µM [falling, single point]"}, {"molecule": "Cc1cc(NC(=O)NC(=O)c2ccc(F)cc2F)n[nH]1", "AC50": "0.00631 µM [falling, full curve, poor fit]"}, {"molecule": "CCCCN(CC)CCNC(=O)c1cc2c(C)nc3ccccc3c2o1", "AC50": "20 µM [rising, single point]"}, {"molecule": "CC(=O)NC(O)C(=O)c1ccco1", "note": "(configuration not stated)", "AC50": "25.1 µM [rising, single point]"}, {"molecule": "CCCn1c(=O)c2ccccc2n2c(SCCOc3ccccc3F)nnc12", "AC50": "12.6 µM [rising, partial curve]"}, {"molecule": "CCOC(=O)c1oc2ccccc2c1CSc1nnc(-c2ccco2)o1", "AC50": "12.6 µM [rising, partial curve]"}, {"molecule": "COCCNc1nc(-c2ccoc2)nc2ccccc12", "AC50": "15.8 µM [rising, partial curve]"}, {"molecule": "CCOC(=O)c1ccccc1Nc1cc(C)nc2nc(C)nn12", "AC50": "5.01 µM [rising, partial curve]"}, {"molecule": "CC(=O)Nc1ccc(C(=O)Nc2ccc3c(c2)OCO3)cc1", "AC50": "0.501 µM [falling, partial curve, poor fit]"}, {"molecule": "CCN1CCN(CCCNC(=O)c2cn(CCOC)c(=O)c3c2c2ccccc2n3C)CC1", "AC50": "0.0316 µM [falling, partial curve]"}, {"molecule": "O=C(CCN1C(=O)C2C3C=CC(C3)C2C1=O)N1CCN(c2ccc(F)cc2)CC1", "note": "(configuration not stated)", "AC50": "1.26 µM [falling, partial curve]"}, {"molecule": "O=C(Nc1ccccc1Cl)c1cnccn1", "AC50": "5.01 µM [rising, single point]"}, {"molecule": "COc1ccc(NC(=O)COc2nc(N(C)C)nc(N(C)C)n2)cc1", "AC50": "12.6 µM [rising, single point]"}, {"molecule": "C=CCSc1nc2c(c(=O)[nH]c(=O)n2C)n1C(C)C", "AC50": "10 µM [rising, partial curve]"}, {"molecule": "CCC(C)[C@@H](C(=O)Nc1ccc(OC)c(OC)c1)N1Cc2ccccc2C1=O", "note": "(some centres not stated)", "AC50": "3.98 µM [rising, full curve]"}, {"molecule": "CSc1nc2ccc(NS(=O)(=O)c3ccc(Cl)s3)cc2s1", "AC50": "6.31 µM [rising, partial curve]"}, {"molecule": "COc1ccc(-c2nnc(SCC(=O)Nc3ncc(C)s3)n2-c2ccccc2)cc1OC", "AC50": "6.31 µM [rising, partial curve]"}, {"molecule": "COc1ccc(CC(=O)N2CCN(c3ccccn3)CC2)cc1", "AC50": "5.01 µM [falling, partial curve]"}, {"molecule": "CCc1ccccc1NS(=O)(=O)c1cc(C)ccc1OC", "AC50": "12.6 µM [rising, partial curve]"}, {"molecule": "Cn1nc(-c2ccc(N3CCCCC3)c(NC(=O)c3ccco3)c2)c2ccccc2c1=O", "AC50": "1.58 µM [rising, full curve]"}, {"molecule": "CCOC(=O)N1CCC(NC(=O)CSc2cc(=O)n(CC)c3ccccc23)CC1", "AC50": "3.98 µM [rising, single point]"}, {"molecule": "Cc1cccc(-n2c(=O)[nH]c3c(C(N)=O)nc(C(C)C)nc32)c1", "AC50": "10 µM [rising, partial curve]"}, {"molecule": "COc1ccc(NC(=O)c2ocnc2C)cc1OC", "AC50": "25.1 µM [rising, single point]"}, {"molecule": "N#CCCn1c(=O)c(-c2cccc(C#N)c2)nc2cnc(Oc3cccc(Cl)c3)nc21", "AC50": "15.8 µM [rising, single point]"}, {"molecule": "Cc1ccc(NC(=O)CC2SCCNC2=O)cc1Cl", "note": "(configuration not stated)", "AC50": "25.1 µM [rising, single point]"}, {"molecule": "Oc1c(C(c2cccc(F)c2)N2CCN(Cc3ccccc3)CC2)sc2ncnn12", "note": "(configuration not stated)", "AC50": "6.31 µM [falling, partial curve]"}, {"molecule": "COc1ccc2nc(SCc3nc(N)nc(Nc4ccccc4)n3)[nH]c2c1", "AC50": "1.58 µM [rising, partial curve]"}, {"molecule": "COc1ccc(CCN(Cc2cc3cccc(C)c3[nH]c2=O)C(=O)N2CCCC2)cc1OC", "AC50": "12.6 µM [rising, partial curve]"}, {"molecule": "O=C(N1CCOCC1)N(Cc1ccccc1)c1ccccn1", "AC50": "25.1 µM [rising, single point]"}, {"molecule": "CCCCn1cnc2c(c(CC#N)nn2-c2ccccc2)c1=N", "AC50": "5.01 µM [rising, single point]"}, {"molecule": "COC(=O)c1ccc(Oc2cc(C)nc(SC)n2)cc1", "AC50": "25.1 µM [rising, single point]"}, {"molecule": "COc1ccc(CCNc2c(N)n(Cc3ccccc3)c(=O)[nH]c2=O)cc1OC", "AC50": "10 µM [rising, single point]"}, {"molecule": "CCCn1c(NC(=O)c2cccc(S(=O)(=O)N3CCCC3)c2)nc2ccccc21", "AC50": "10 µM [falling, partial curve]"}, {"molecule": "COc1ccc(C2C(C#N)=C(/N=C/N3CCN(C)CC3)OC3=C2C(=O)CC(C)(C)C3)cc1OC", "note": "(configuration not stated)", "AC50": "0.158 µM [rising, full curve, poor fit]"}, {"molecule": "O=C(C1CCC1)N1CCc2cc(S(=O)(=O)Nc3ccc4c(c3)OCO4)ccc21", "AC50": "5.01 µM [rising, partial curve]"}, {"molecule": "COC(=O)c1cc(OC)c(OC)cc1NC(=O)c1ccccc1", "AC50": "0.316 µM [rising, full curve]"}, {"molecule": "CCCCCn1c(N2CCN(c3cccc(Cl)c3)CC2)nc2c1c(=O)[nH]c(=O)n2C", "AC50": "15.8 µM [falling, partial curve, poor fit]"}, {"molecule": "COC(=O)[C@H](C)NC(=O)Nc1cc(OC)ccc1OC", "AC50": "20 µM [falling, partial curve]"}, {"molecule": "CN1CCCN(C(=O)Cc2c(Cl)cccc2Cl)c2nc3ccccc3nc21", "AC50": "6.31 µM [rising, single point]"}, {"molecule": "Cc1cc(NC(=O)CSc2nnc3c(C)cc4cc5c(cc4n23)OCO5)no1", "AC50": "2 µM [rising, single point]"}, {"molecule": "CCCC(=O)N1CCN(c2ccc(NC(=O)c3cc4ccccc4o3)cc2Cl)CC1", "AC50": "25.1 µM [falling, single point]"}, {"molecule": "Nc1c(NCCC2=CCCCC2)c(=O)[nH]c(=O)n1Cc1ccccc1", "AC50": "10 µM [rising, partial curve]"}, {"molecule": "Cc1ccc(Cn2ccc(NC(=O)c3c(-c4ccccc4Cl)noc3C)n2)cc1", "AC50": "0.126 µM [falling, full curve]"}, {"molecule": "CC(C)Oc1ccc2c3c(c(=O)oc2c1)CCC3", "AC50": "10 µM [rising, partial curve]"}, {"molecule": "Cc1cc(OCCSc2nnc(-c3cccs3)n2C)ccc1Cl", "AC50": "10 µM [falling, single point]"}, {"molecule": "O=C1N2CCSC2=NC1(Nc1ccccn1)C(F)(F)F", "note": "(configuration not stated)", "AC50": "3.16 µM [falling, partial curve]"}, {"molecule": "NC(=O)C1(N2CCCCC2)CCN(c2ccc3nnc(-c4ccccc4)n3n2)CC1", "AC50": "10 µM [rising, partial curve]"}, {"molecule": "COc1cccc(NC(=O)Nc2nnc(N3CCCCC3C)s2)c1", "note": "(configuration not stated)", "AC50": "25.1 µM [falling, single point]"}, {"molecule": "O=C(CN1C(=O)c2cccc3cccc1c23)Nc1ccc(S(=O)(=O)N2CCOCC2)cc1", "AC50": "25.1 µM [rising, single point]"}, {"molecule": "COc1cc2c(cc1NC(=O)c1ccco1)CCCC2", "AC50": "0.00316 µM [falling, full curve, poor fit]"}, {"molecule": "COC(=O)C1=C(C)NC2=C(C(=O)CC(c3cccs3)C2)C1c1ccsc1", "note": "(configuration not stated)", "AC50": "12.6 µM [rising, single point]"}, {"molecule": "O=C(NCCOc1ccccc1)c1n[nH]c(=O)c2ccccc12", "AC50": "10 µM [rising, partial curve]"}, {"molecule": "C=Cc1c(C)c2cc3nc(cc4[nH]c(cc5nc(cc1[nH]2)C(C)=C5CCC(=O)O)c(CCC(=O)OC)c4C)[C@@]1(C)C3=CC=C(C(=O)OC)[C@H]1C(=O)OC", "note": "(tested in a mixture with another compound)", "AC50": "12.6 µM [rising, single point]"}, {"molecule": "COc1cccc(Cn2c(=O)c(-c3ccc(F)c(F)c3)nc3cncnc32)c1", "AC50": "15.8 µM [rising, partial curve]"}, {"molecule": "CCOC(=O)c1oc2ccccc2c1NC(=O)c1ccc(S(=O)(=O)N2CCCC2)cc1", "AC50": "2 µM [rising, full curve]"}, {"molecule": "NC(=O)c1oc2ccccc2c1NC(=O)CN1CCCCC1", "AC50": "3.98 µM [falling, full curve, poor fit]"}, {"molecule": "C=CCN=C(NC#N)SCC(=O)NC(C)(C)C", "AC50": "7.94 µM [falling, partial curve, poor fit]"}, {"molecule": "COc1ccc(CCNc2oc(COc3ccccc3F)nc2C#N)cc1", "AC50": "25.1 µM [falling, single point]"}, {"molecule": "Cc1cc(C(=O)Nc2sc3c(c2C#N)CCC(C)C3)no1", "note": "(configuration not stated)", "AC50": "25.1 µM [rising, single point]"}, {"molecule": "O=C(c1ccc(Cl)s1)N1CCN(c2ccccc2)CC1", "AC50": "12.6 µM [rising, partial curve]"}, {"molecule": "Oc1c(C(c2ccco2)N2CCN(C(c3ccccc3)c3ccccc3)CC2)sc2ncnn12", "note": "(configuration not stated)", "AC50": "12.6 µM [rising, partial curve]"}, {"molecule": "O=C(Nc1cccc(Cl)c1)N(Cc1nc2ccccc2c(=O)[nH]1)C1CCCC1", "AC50": "20 µM [rising, single point]"}, {"molecule": "O=C(C1CCCN1S(=O)(=O)c1ccc(Cl)cc1)N1CCOCC1", "note": "(configuration not stated)", "AC50": "0.00398 µM [falling, full curve, poor fit]"}, {"molecule": "COC(=O)/C=C/S(=O)(=O)c1ccc(NC(C)=O)cc1", "AC50": "5.01 µM [falling, full curve]"}, {"molecule": "COc1ccc(-c2nn3c(-c4ccccc4)nnc3s2)cc1", "AC50": "15.8 µM [rising, single point]"}, {"molecule": "Cc1cc(SCC(=O)NC(=O)NCc2ccco2)nc2c(C)cccc12", "AC50": "1.26 µM [falling, full curve]"}]}]}
